# Values from PubChem BioAssay AID1259254 (NCATS, 2017)
# Purpose: 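Genome-wide screen for genes that prevent DNA re-replication in cancer cells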 (primary screen)
# System: human HCT116 colorectal cancer cells
# Reagents: single siRNA against human genes
# Duration: 3 days
# Measurement: 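Nuclei stained with Hoechst and imaged; cell-cycle phase assigned by DNA content; G2 share scaled per plate, non-targeting siRNA 0%, GMNN siRNA 100%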
# Reading the numbers: G2 robust z-score and G2 cells, % of GMNN control: higher = more G2 cells, more excess DNA replication; raw share of cells in G2: higher = larger share of cells with G2 DNA content
# Active means: 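Active siRNAs have a G2 robust z of 5 or more median absolute deviations over the median, which in these data means about 38% or higher of GMNN control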
# Shown is an unselected part of about 59,000 reagents. Of all reagents, about 1,550 (2.6%) were called active. 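G2 share is only a proxy for re-replication; each gene was hit by three separate siRNAs, and active genes were retested.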 The raw values are shown without normalisation. The numbers tell different reagents against one gene apart. Reagent sequences are not shown. Not given: the amount of reagent.
target,reagent,G2 robust z-score,"G2 cells, % of GMNN control",raw share of cells in G2 (%),activity call
HECW2,1,-0.52,-0.693,4.1,inactive
HECW2,2,-0.782,-2.54,4.6,inactive
HECW2,3,0.0532,3.34,5.44,inactive
NEDD4L,1,-0.0314,2.75,7.47,inactive
NEDD4L,2,0.153,4.04,5.51,inactive
NEDD4L,3,-0.348,0.518,4.04,inactive
YAE1,1,-0.666,-1.72,3.67,inactive
YAE1,2,2.36,19.6,13.8,inactive
YAE1,3,0.196,4.34,4.41,inactive
PKHD1,1,-0.994,-4.02,3.26,inactive
PKHD1,2,1.38,12.7,9.23,inactive
PKHD1,3,8.9,65.6,27.1,active
AGO4,1,-1.16,-5.19,1.74,inactive
AGO4,2,8.62,63.6,24.3,active
AGO4,3,-0.775,-2.48,1.98,inactive
THY1,1,-1.36,-6.59,1.78,inactive
THY1,2,0.439,6.05,6.62,inactive
THY1,3,-0.426,-0.0288,5.67,inactive
PABPC1L2B,1,-0.706,-2,3.02,inactive
PABPC1L2B,2,-0.57,-1.04,2.84,inactive
PABPC1L2B,3,-0.371,0.354,3.16,inactive
PRR12,1,0.82,8.74,7.79,inactive
PRR12,2,3.28,26.1,16.9,inactive
PRR12,3,2.81,22.7,10.2,inactive
HMGN2P16,1,1.63,14.4,9.01,inactive
HMGN2P16,2,-0.595,-1.22,2.44,inactive
HMGN2P16,3,-1.11,-4.81,1.78,inactive
CSF2RA,1,-0.794,-2.62,4.03,inactive
CSF2RA,2,-0.0995,2.27,5.82,inactive
CSF2RA,3,-1.01,-4.14,2.67,inactive
ABCD3,1,1.57,14,8.81,inactive
ABCD3,2,-0.431,-0.0648,4.65,inactive
ABCD3,3,-1.15,-5.13,3.22,inactive
APEX1,1,0.773,8.4,7.58,inactive
APEX1,2,2.7,22,12.9,inactive
APEX1,3,1.56,13.9,9.18,inactive
CFAP221,1,0.0848,3.56,4.88,inactive
CFAP221,2,0.463,6.22,5.05,inactive
CFAP221,3,0.616,7.3,5.07,inactive
UBE2S,1,1.69,14.8,8.84,inactive
UBE2S,2,1.42,13,8.5,inactive
UBE2S,3,0.756,8.29,9.92,inactive
LINC02743,1,0.0529,3.34,4.1,inactive
LINC02743,2,0.0648,3.42,5.07,inactive
LINC02743,3,-0.623,-1.42,2.7,inactive
RTL1,1,1.24,11.7,7.77,inactive
RTL1,2,4.85,37.1,19.5,inactive
RTL1,3,-0.313,0.768,4.96,inactive
ARHGAP23,1,-0.909,-3.43,1.94,inactive
ARHGAP23,2,-0.449,-0.193,4.27,inactive
ARHGAP23,3,0.94,9.58,9.04,inactive
PPIH,1,-1.22,-5.63,2.02,inactive
PPIH,2,0.723,8.06,9.2,inactive
PPIH,3,4.41,34,19.9,inactive
DIP2A,1,-0.449,-0.189,4.91,inactive
DIP2A,2,-0.255,1.17,4.62,inactive
DIP2A,3,-0.652,-1.62,2.57,inactive
BZW2,1,-1.36,-6.57,2.01,inactive
BZW2,2,-0.801,-2.67,3.12,inactive
BZW2,3,1.38,12.7,11.9,inactive
SCGN,1,-0.669,-1.74,2.95,inactive
SCGN,2,-0.789,-2.58,4.84,inactive
SCGN,3,2.83,22.8,12.9,inactive
PDILT,1,3.43,27.1,16.1,inactive
PDILT,2,-0.492,-0.492,5.72,inactive
PDILT,3,-0.043,2.66,5.68,inactive
PRG4,1,-0.577,-1.09,4.84,inactive
PRG4,2,-0.607,-1.3,3.4,inactive
PRG4,3,0.675,7.72,6.21,inactive

Hits, of those listed so far:
target,reagent,G2 robust z-score,"G2 cells, % of GMNN control",raw share of cells in G2 (%),activity call
PKHD1,3,8.9,65.6,27.1,active
AGO4,2,8.62,63.6,24.3,active
